Inconclusive results, whose numbers are uncertain, are shown with a selection of clear calls. A potency beside an inconclusive call is a rough fit, not a confirmed value. Calls of active or inactive are those of the source. Calls follow the shape of the dose curve; as a rule, active = well fitted curve in the direction sought with a large enough effect; inconclusive = small, poorly fitted or top-dose-only effect, or another doubt; inactive = no such curve, though single readings can be large; an effect the other way counts as inactive or inconclusive.
molecular target: Tumor susceptibility gene 101 protein (Homo sapiens) (UniProt Q99816); assay: qHTS Assay for Iinhibitors of HIV-1 Budding by Blocking the Interaction of PTAP/TSG101: Hit Validation (AID 651600); details: PTAP peptide/TSG101 UEV interaction, biochemical assay; activity change, negative = inhibition: at the top concentration; also: nearly all actives have a fitted effect of over 70% in size; as to activity change, negative = inhibition: % is scaled to controls: 0 for no effect and ±100 for the full control effect
Procedure, shortened: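 Compounds are added to the Tsg101 binding domain (10 uM final) in pH 7.5 HEPES buffer. FITC-PTAP peptide follows at 50 nM final. After 20 min at r.t., polarized FITC emission is measured.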
Potency is read from the fitted curve at half-maximal effect.

Protein sequences, listed by entry. Tags and fused reporters are not part of them. Lines headed by an entry give the natural chain unless they say otherwise; changes in a name come on top.
UniProt Q99816: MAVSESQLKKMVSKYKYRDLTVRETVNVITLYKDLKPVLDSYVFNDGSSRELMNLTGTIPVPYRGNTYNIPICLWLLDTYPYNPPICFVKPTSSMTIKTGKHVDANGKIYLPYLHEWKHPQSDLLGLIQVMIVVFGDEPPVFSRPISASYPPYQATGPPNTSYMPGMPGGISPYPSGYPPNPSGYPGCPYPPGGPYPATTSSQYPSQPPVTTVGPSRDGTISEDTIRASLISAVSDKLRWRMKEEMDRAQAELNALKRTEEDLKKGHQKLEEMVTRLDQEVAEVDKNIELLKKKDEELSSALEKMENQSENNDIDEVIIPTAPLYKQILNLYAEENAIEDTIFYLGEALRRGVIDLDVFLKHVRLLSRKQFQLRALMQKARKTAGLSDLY
UniProt O95398: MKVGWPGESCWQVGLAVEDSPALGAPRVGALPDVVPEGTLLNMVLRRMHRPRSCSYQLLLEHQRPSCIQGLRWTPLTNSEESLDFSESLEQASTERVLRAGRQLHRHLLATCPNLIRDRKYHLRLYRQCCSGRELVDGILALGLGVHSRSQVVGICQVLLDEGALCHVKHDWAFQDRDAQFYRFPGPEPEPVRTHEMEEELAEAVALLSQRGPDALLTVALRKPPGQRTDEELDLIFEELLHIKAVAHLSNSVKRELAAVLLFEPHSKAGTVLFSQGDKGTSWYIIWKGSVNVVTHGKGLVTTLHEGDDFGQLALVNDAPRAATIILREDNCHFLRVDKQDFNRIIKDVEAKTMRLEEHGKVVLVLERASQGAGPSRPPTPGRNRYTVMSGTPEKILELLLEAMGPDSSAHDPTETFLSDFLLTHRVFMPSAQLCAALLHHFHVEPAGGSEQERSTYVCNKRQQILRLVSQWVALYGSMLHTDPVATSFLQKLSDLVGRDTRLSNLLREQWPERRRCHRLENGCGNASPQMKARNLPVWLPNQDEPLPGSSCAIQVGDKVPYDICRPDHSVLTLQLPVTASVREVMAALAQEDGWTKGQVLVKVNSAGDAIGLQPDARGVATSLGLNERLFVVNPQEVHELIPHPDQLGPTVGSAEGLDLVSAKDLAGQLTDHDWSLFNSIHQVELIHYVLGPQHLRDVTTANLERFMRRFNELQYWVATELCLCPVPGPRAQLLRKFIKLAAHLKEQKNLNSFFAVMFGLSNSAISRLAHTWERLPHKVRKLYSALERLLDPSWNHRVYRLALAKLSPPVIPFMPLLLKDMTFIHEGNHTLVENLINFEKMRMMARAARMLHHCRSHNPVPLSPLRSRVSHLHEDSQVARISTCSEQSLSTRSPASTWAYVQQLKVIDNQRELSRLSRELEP

SMILES | Potency | activity change, negative = inhibition
Oc1ccc2nnc3c(Br)cnn3c2c1 | active: 16.3 µM | 
COc1ccc2nc3ccccc3nc2c1NC(=O)c1ccc(Cl)cc1Cl |  | inactive: -25.6%
CCOC(=O)C1=C(C)N=c2s/c(=C\c3cccn3C)c(=O)n2C1c1cccc(OC)c1OC (centres undefined) | inconclusive: 46.1 µM [inhibitor, single point] | 
O=C1c2cccc3c(O)ccc(c23)C(=O)N1Cc1ccco1 | active: 1.46 µM | 
CSC1=NSC2=NC(=O)/C(=C/c3coc4ccccc4c3=O)C(=N)N12 | active: 18.3 µM | 

molecular target: Rap guanine nucleotide exchange factor 3 (Homo sapiens) (UniProt O95398); assay: Confirmatory qHTS for agonist of cAMP-regulated guanine nucleotide exchange factor 3 (EPAC1) (AID 1645881); details: EPAC1 Rap1B BODIPY-GDP exchange fluorescence; activation: at 154 µM (top of the series), 100% = cAMP control response; also: nearly all actives have a fitted effect of over 75% in size;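 as to activation: EPAC1 catalysed release of BODIPY-GDP from Rap1B seen as fluorescence loss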

SMILES | activation | Potency
O=C(/C=C/c1ccc(O)c(O)c1)O[C@@H]1C[C@](O)(C(=O)O)C[C@@H](O)[C@H]1O | inactive: 6.37% | 
CCOC(=O)C1=C(C)N=c2s/c(=C/c3ccc(OCC(=O)O)c(OC)c3)c(=O)n2C1c1ccc(Cl)cc1 (centres undefined) |  | inconclusive: 100 µM [activator, partial curve, poor fit]
Oc1ccc2nnc3c(Br)cnn3c2c1 |  | inconclusive: 126 µM [activator, partial curve, poor fit]
COc1ccc2nc3ccccc3nc2c1NC(=O)c1ccc(Cl)cc1Cl |  | active: 100 µM
COc1ccc2noc3c2c1C(=O)c1ccccc1-3 |  | inconclusive: 31.6 µM [activator, partial curve, poor fit]
CCC(=O)N1CCc2cc(OC)c(OC)cc2C1COc1ccccc1OC (centres undefined) |  | inconclusive: 141 µM [activator, single point]
CCOC(=O)C1=C(C)N=c2s/c(=C\c3cccn3C)c(=O)n2C1c1cccc(OC)c1OC (centres undefined) |  | inconclusive: 89.1 µM [activator, partial curve, poor fit]
CN(C)c1ccc(/C=C2\SC(=S)N(Nc3ncc(C(F)(F)F)cc3Cl)C2=O)cc1 |  | inconclusive: 50.1 µM [activator, partial curve, poor fit]
O=C(O)c1cccc(-c2ccc(/C=c3/sc4nc5ccccc5n4c3=O)o2)c1 |  | inconclusive: 89.1 µM [activator, partial curve, poor fit]
Cc1nc2ccccc2n2c(O)c(CC(=O)O)cc12 |  | inconclusive: 112 µM [activator, partial curve, poor fit]
C#CCOc1ccc(/C=C2/C(=O)N(c3cccc(C(=O)O)c3)N=C2C)cc1OC | inactive: 5.1% | 
O=C1c2cccc3c(O)ccc(c23)C(=O)N1Cc1ccco1 |  | active: 100 µM
CSC1=NSC2=NC(=O)/C(=C/c3coc4ccccc4c3=O)C(=N)N12 |  | active: 89.1 µM
CC1=Nc2ccccc2/C1=C\c1nc(-c2ccc(F)cc2)oc1O |  | inconclusive: 70.8 µM [activator, single point]

Fetched by compound from above (2):
SMILES | activation | Potency
CSC1=NSC2=NC(=O)/C(=C/c3coc4ccccc4c3=O)C(=N)N12 |  | active: 89.1 µM
C#CCOc1ccc(/C=C2/C(=O)N(c3cccc(C(=O)O)c3)N=C2C)cc1OC | inactive: 5.1% | 
